Data as given in PubChem BioAssay AID1259254 (NCATS, 2017).

Screen: 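Gene knock-downs that lead to re-replication, shown by excess G2 DNA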 (primary screen)
System: human HCT116 colorectal cancer cells
Knock-down reagent: single siRNA against human genes
Duration: 3 days
Read-out: 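Nuclei stained with Hoechst and imaged; cell-cycle phase assigned by DNA content; G2 share scaled per plate, non-targeting siRNA 0%, GMNN siRNA 100%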
Direction: G2 robust z-score and G2 cells, % of GMNN control: higher = more G2 cells, more excess DNA replication
Rule for the call: 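An siRNA counts as active if its G2 robust z-score lies at least 5 MADs above the screen median; here such calls match roughly 38% of GMNN control or more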
The whole screen tested about 59,000 reagents; below is a part drawn at random. Over the whole deposit, about 1,550 (2.6%) got an active call. 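G2 share is only a proxy for re-replication; each gene was hit by three separate siRNAs, and active genes were retested.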 Reagents against one gene are numbered here. Not all columns of the deposit are shown. Reagent sequences are not shown. The record does not give: the amount of reagent.

Silencing of STK33 (serine/threonine kinase 33) #1 came out at: G2 robust z-score -0.138; G2 cells, % of GMNN control 1.99; inactive.
For STK33 (serine/threonine kinase 33) #2, the entry reads G2 robust z-score 2.67; G2 cells, % of GMNN control 21.8; inactive.
With knock-down of STK33 (serine/threonine kinase 33) #3, the screen gave G2 robust z-score -0.422; G2 cells, % of GMNN control 0.000702; inactive.
Against LOC440300 (chondroitin sulfate proteoglycan 4 pseudogene) #1 the deposit lists G2 robust z-score -0.243; G2 cells, % of GMNN control 1.26; inactive.
For LOC440300 (chondroitin sulfate proteoglycan 4 pseudogene) #2, the entry reads G2 robust z-score 6.75; G2 cells, % of GMNN control 50.4; active.
With knock-down of LOC440300 (chondroitin sulfate proteoglycan 4 pseudogene) #3, the record shows G2 robust z-score -0.523; G2 cells, % of GMNN control -0.709; inactive.
Depletion of FZD10-AS1 (FZD10 antisense RNA 1) #1 gave: G2 robust z-score 0.85; G2 cells, % of GMNN control 8.95; inactive.
FZD10-AS1 (FZD10 antisense RNA 1) #2 showed G2 robust z-score 0.713; G2 cells, % of GMNN control 7.99; inactive.
Knock-down of FZD10-AS1 (FZD10 antisense RNA 1) #3 came out at: G2 robust z-score -0.612; G2 cells, % of GMNN control -1.34; inactive.
CAVIN3 (caveolae associated protein 3) #1 scored G2 robust z-score -0.504; G2 cells, % of GMNN control -0.579; inactive.
CAVIN3 (caveolae associated protein 3) #2 scored G2 robust z-score -0.698; G2 cells, % of GMNN control -1.94; inactive.
CAVIN3 (caveolae associated protein 3) #3 scored G2 robust z-score -0.531; G2 cells, % of GMNN control -0.77; inactive.
SPARCL1 (SPARC like 1) #1 scored G2 robust z-score -0.348; G2 cells, % of GMNN control 0.517; inactive.
Depletion of SPARCL1 (SPARC like 1) #2 resulted in: G2 robust z-score -0.606; G2 cells, % of GMNN control -1.3; inactive.
Knock-down of SPARCL1 (SPARC like 1) #3 resulted in: G2 robust z-score 0.229; G2 cells, % of GMNN control 4.58; inactive.
For ASPH (aspartate beta-hydroxylase) #1, the values are G2 robust z-score 9.01; G2 cells, % of GMNN control 66.4; active.
Silencing of ASPH (aspartate beta-hydroxylase) #2 came out at: G2 robust z-score 0.158; G2 cells, % of GMNN control 4.08; inactive.
ASPH (aspartate beta-hydroxylase) #3 showed G2 robust z-score -0.263; G2 cells, % of GMNN control 1.11; inactive.
With knock-down of RPL24 (ribosomal protein L24) #1 the results were G2 robust z-score 1.61; G2 cells, % of GMNN control 14.3; inactive.
For RPL24 (ribosomal protein L24) #2 the deposit lists G2 robust z-score 1.52; G2 cells, % of GMNN control 13.7; inactive.
After knock-down of RPL24 (ribosomal protein L24) #3, the screen gave G2 robust z-score 2.01; G2 cells, % of GMNN control 17.1; inactive.
RILPL2 (Rab interacting lysosomal protein like 2) #1 gave G2 robust z-score 0.584; G2 cells, % of GMNN control 7.08; inactive.
After knock-down of RILPL2 (Rab interacting lysosomal protein like 2) #2, the record shows G2 robust z-score -0.586; G2 cells, % of GMNN control -1.16; inactive.
Against RILPL2 (Rab interacting lysosomal protein like 2) #3, the entry reads G2 robust z-score -0.0591; G2 cells, % of GMNN control 2.55; inactive.
